Library screen at single concentrations

Data taken from ChEMBL document CHEMBL3988442, “University of Dundee, Small-Polar-MMV Screening Library” (2021).

T. brucei: 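Whole-parasite assay of Trypanosoma brucei over 72 hours; the read-out is not stated. Tested at 30 µM. Direction is inferred from retests: higher values go with stronger inhibition. Values scatter widely below zero; nearly all retest evidence comes from the higher of the two concentrations used. About 64,000 compounds were tested under these conditions; 1.5% (about 940) showed 50% or more at least once.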
Leishmania in macrophages: 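Cell assay of Leishmania donovani living inside macrophages; the read-out is not stated. Compounds at 30 µM. Direction is inferred from retests: higher values go with stronger inhibition. Of about 69,000 compounds tested this way, about 1,000 (1.5%) reached 50% or more in at least one test.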

Each number is a percent effect as filed. The controls that fix the scale are not given in the record; negative values are as filed. Compounds were drawn at random from those tested, without regard to their results. Two or more numbers in one place are separate tests of the same structure; such repeats can differ widely. A dash means the value is not listed here; it may have been measured.

structure	T. brucei	Leishmania in macrophages
Cc1cc(C)nc(N2CCOC(c3cc(CCO)[nH]n3)C2)n1 (configuration not stated)	-14.4	19.14
Cc1cc(F)ccc1N1CCCC(NC(=O)CCc2ccncc2)C1 (configuration not stated)	-21.34	17.34
COc1ccc(CNc2nc(C3CC3)nc3c(C)nn(C)c23)cc1	-	8.447
CCOc1ncccc1-c1cc2c(cc1C(N)=O)OCO2	-89.59	-12.87
Cc1ccc(C(=O)NCC2CCCCO2)c(=O)[nH]1 (configuration not stated)	-2.812	20.08
CCC(=O)N1CCCCC1c1nc(O)c2c(n1)CN(C(=O)C1CC1)CC2 (configuration not stated)	13.18	35
Cc1ccc(NC2CCN(C(=O)c3ccc4c(c3)CCC4)CC2)nn1	-20.1	-16.62
CC(C)[C@@H]1CN(Cc2ccccn2)C[C@H]1NS(=O)(=O)N(C)C	-48.57	12.63
CC1CCCN(Cc2csc(-c3ncccn3)n2)CC1 (configuration not stated)	1.097	43.73
CCOCc1cnc2n1CCN(C(=O)C1=CCCC1)C2C (configuration not stated)	-28.98	33.22
O=C(O)C(F)(F)F.O=C(c1ccco1)N1CCCC2(CN(Cc3cccs3)CCO2)C1 (configuration not stated)	-0.7155	21.36
CN(C)c1ccc(C(=O)Nc2ccn(CCc3ccncc3)n2)cc1	-123.2	19.38
Cc1cnn(CC2CCCN2Cc2nccn2CC(F)(F)F)c1 (configuration not stated)	-	-4.644
CC(C)n1c2ccccc2c2c1cc(C(=O)N(C)C)n2S(C)(=O)=O	-39.25	1.388
CCN(CC)S(=O)(=O)N1CCCN(CC2CCCO2)CC1 (configuration not stated)	-33.4	-22.14
CCN(CC)CCNC(=O)c1cnc(-c2ccccc2)nc1	3.815	22.42
CCC1COCCN1C(=O)NCc1cccc(-c2cnn(C)c2)c1 (configuration not stated)	-8.466	32.75
CNC(=O)c1ccccc1NCc1ncnn1C	-21.17	-9.223
COc1cccc(CN2CCCC(Cn3nc(C)nc3C)C2)c1 (configuration not stated)	-5.452	27.47
CCc1nc(C)c(-c2nccn2CC2CCCCO2)[nH]1 (configuration not stated)	-6.15	48.89
Cc1ccc(CN2CCn3c(CNS(C)(=O)=O)nnc3C2)s1	-444.5	21.51
CSCCC(=O)N1CCCC(c2nccn2Cc2ccncc2)C1 (configuration not stated)	-36.74	27.04
CCCN(CC)c1ccc(C(=O)N2CCCC2c2cnn(C)c2)cn1 (configuration not stated)	-5.454	-2.842
CCCc1nc(CNC2(c3nccs3)CCCC2)cs1	2.717	12.34
Cc1noc(C)c1CSCc1csc(CS(C)(=O)=O)n1	-0.2027	8.693
c1ccc2c(c1)CCN2c1nc(N2CCOCC2)c2nn[nH]c2n1	-6.796	17.65
Fc1cnc(N2CCOCC3(CCCN(c4cnccn4)C3)C2)nc1 (configuration not stated)	-17.77	8.854
CO[C@H]1CNC[C@@H]1NC(=O)c1cc(C)nc2ccc(C)cc12	-20.68	-4.133
Cc1ccc(CCC(=O)N2CCOCC2c2ncon2)c(C)c1 (configuration not stated)	-33.44	-17.31
O=C(NCCO)Nc1ccc(Cl)cc1-n1cccc1	-48.6	37.71
O=C(c1cccc(O)c1)N1CCN(Cc2nnc(C3CCC3)o2)CC1	-100.9	-32.78
CCn1cnnc1CNC(=O)NC(C)c1cccs1 (configuration not stated)	34.53	25.88
Cc1noc(C)c1CN(Cc1ccccc1)C(C)CN1CCOCC1 (configuration not stated)	-21.28	-7.414
CN1CCCC(c2cccc(CCC(N)=O)n2)C1 (configuration not stated)	-7.799	-4.533
CN(C)C(=O)Cn1cnc2c(Br)cccc2c1=O	-13.79	-15.94
[H][C@]12CCN(C(=O)c3ccc4c(c3)CCCC4)CC[C@]1([H])OCC(=O)N2	-4.165	23.92
Cc1nc(CNC(=O)N2CCN(c3ccc(Cl)cn3)CC2)sc1C	8.84	5.514
CC(C)NC(=O)c1sccc1N(C)S(=O)(=O)c1ccc(Cl)cc1	-2.248	7.242
Cc1cc(C(=O)NC(C)Cc2ccc(N(C)C)cc2)n(C)n1 (configuration not stated)	-115.1	32.38
[H][C@]12CCN(C(=O)CN(C)C)C[C@@]1([H])OCCN(Cc1csc(C)n1)C2	8.371	36.01
Cc1n[nH]c2nc(-c3ccccc3O)cc(C(=O)O)c12	-30.17	36.35
[H][C@]12CC[C@]([H])(CN(c3ncccn3)C1)N(C(=O)Cn1ccnc1CC)C2	-18.9	13.22
O=C(O)C(F)(F)F.O=C(O)C(F)(F)F.[H][C@@]12OCCC[C@]1([H])N(Cc1ccc(C)o1)C[C@@H]2N1CCOCC1	-88.92	-18.43
COc1ccc(OC)c(CCC(=O)Nc2cc(C)n[nH]2)c1	-24.02	13.38
N#Cc1csc(CNCCOc2ccccc2)c1	-12.62	11.31
CCCn1ncc(C(=O)N(CCOC)Cc2c(C)nn(CC)c2C)c1C	-29.01	5.837
CCCc1nc(CN2CCOC(CNc3cccnn3)C2)cs1 (configuration not stated)	-24.78	21.86
O=C(NC1CC1)C1CCN(Cn2nc(-c3ccccc3)oc2=O)CC1	-22.36	-15.12
CC(O)CC(C)(C)CNC(=O)NCc1cccc(-n2cncn2)c1 (configuration not stated)	-17.34	39.69
O=C(NCCCn1ccnc1)N1CCCC1c1cccs1 (configuration not stated)	-23.17	17.63
Cn1cnc(S(=O)(=O)N2CCCc3cc(F)cc(F)c32)c1Cl	43.68	28.15
CS(=O)(=O)NCCN(CCCO)C1CCc2ccccc21 (configuration not stated)	-26.45	13.64
CC(C)C(=O)N1CCCC1c1nc(N(C)C)ncc1-c1ccc(Cl)cc1 (configuration not stated)	-	22.58
CC(C)OCCOCc1cccc(NC(=O)NCC(=O)N(C)C)c1	-20.49	-16.26
CC(C)c1noc(C(C)N2CCN(CCN3CCCC3=O)CC2)n1 (configuration not stated)	-11.59	19.97
OCCC1CN(c2nc(-c3cccnc3)nc3c2CCNCC3)CCO1 (configuration not stated)	-29.11	-11.35
O=C(NCCc1nccs1)C1CCCN(Cc2ccco2)C1 (configuration not stated)	-0.8252	-5.894
O=C(O)C(F)(F)F.O=C(O)C(F)(F)F.[H][C@]12CCN(c3ncc(F)cn3)[C@@]1([H])C[C@@H](C(=O)NCc1cccnc1)O2	-20.03	21.83
Cc1ccc(NC(=O)CN(C)C(=O)c2ccc(-n3cccc3)nc2)nc1	-37.87	-10.88
Cn1ccnc1C(=O)N1CCOC(Cc2ccc(Cl)cc2)C1 (configuration not stated)	44.76	6.024 & 24.26
CC(C(=O)NCCN1CCCCCC1)n1cncn1 (configuration not stated)	10.82	-9.509
CN(C)CC1CN(Cc2ccc3c(c2)OCO3)Cc2nccn2C1.O=C(O)C(F)(F)F.O=C(O)C(F)(F)F (configuration not stated)	-43.62	-3.883
CCC1CCCCN1C(=O)CCn1cnc2sccc2c1=O (configuration not stated)	-8.104	6.861
CC1CCN(S(=O)(=O)N2CCCC(c3cccc(C(=O)O)c3)C2)CC1 (configuration not stated)	5.043	0.7879
Cc1ccc(NC(=O)CSCc2cccnc2)nc1	7.163	28.71

For reference, 6 entries once more:

structure,T. brucei,Leishmania in macrophages
Cc1ccc(CCC(=O)N2CCOCC2c2ncon2)c(C)c1 (configuration not stated),-33.44,-17.31
CC1CCN(S(=O)(=O)N2CCCC(c3cccc(C(=O)O)c3)C2)CC1 (configuration not stated),5.043,0.7879
CCCn1ncc(C(=O)N(CCOC)Cc2c(C)nn(CC)c2C)c1C,-29.01,5.837
Cc1n[nH]c2nc(-c3ccccc3O)cc(C(=O)O)c12,-30.17,36.35
CCn1cnnc1CNC(=O)NC(C)c1cccs1 (configuration not stated),34.53,25.88
CSCCC(=O)N1CCCC(c2nccn2Cc2ccncc2)C1 (configuration not stated),-36.74,27.04